Source: PubChem BioAssay (Tox21)
Where “and” joins values, the source holds several entries; their conditions need not be identical. Identical values can stand only once. The inconclusive results got no clear call from the source; some entries with a clear call stand among them for comparison. For some assays here: Where the call is inconclusive, the potency comes from a doubtful curve fit. A structure can be active in one record and inactive in another. Calls of active or inactive are those of the source. Unless noted, calls come from the whole dose curve.

Protein sequences, listed by entry. Tags and fused reporters are not part of them. Lines headed by an entry give the natural chain unless they say otherwise; changes in a name come on top.
UniProt P14416, whole entry, looked up: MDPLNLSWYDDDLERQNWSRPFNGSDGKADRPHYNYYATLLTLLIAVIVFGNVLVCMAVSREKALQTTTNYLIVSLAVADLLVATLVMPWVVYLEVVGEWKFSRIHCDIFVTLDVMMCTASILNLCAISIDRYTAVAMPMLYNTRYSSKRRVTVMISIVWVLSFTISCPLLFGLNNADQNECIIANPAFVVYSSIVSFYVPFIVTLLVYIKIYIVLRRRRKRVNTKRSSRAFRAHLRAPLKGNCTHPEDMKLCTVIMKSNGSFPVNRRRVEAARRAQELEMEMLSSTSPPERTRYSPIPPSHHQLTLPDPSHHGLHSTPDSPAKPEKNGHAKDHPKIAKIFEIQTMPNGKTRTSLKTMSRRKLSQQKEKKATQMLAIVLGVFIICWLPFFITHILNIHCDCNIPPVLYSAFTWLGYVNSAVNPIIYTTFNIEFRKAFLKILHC
UniProt P28223, whole entry, looked up: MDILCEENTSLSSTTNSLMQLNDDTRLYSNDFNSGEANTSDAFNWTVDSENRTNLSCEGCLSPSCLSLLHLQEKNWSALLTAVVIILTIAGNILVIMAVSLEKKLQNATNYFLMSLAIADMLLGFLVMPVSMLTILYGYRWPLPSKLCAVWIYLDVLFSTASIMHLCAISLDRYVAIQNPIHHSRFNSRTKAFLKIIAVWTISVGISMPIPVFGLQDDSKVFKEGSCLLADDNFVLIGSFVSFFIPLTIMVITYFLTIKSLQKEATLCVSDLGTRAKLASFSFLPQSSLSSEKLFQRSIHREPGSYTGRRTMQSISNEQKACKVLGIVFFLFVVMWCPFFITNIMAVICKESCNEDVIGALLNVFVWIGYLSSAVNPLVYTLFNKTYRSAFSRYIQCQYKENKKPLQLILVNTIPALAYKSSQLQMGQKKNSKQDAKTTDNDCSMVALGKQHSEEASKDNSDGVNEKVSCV
UniProt P11229: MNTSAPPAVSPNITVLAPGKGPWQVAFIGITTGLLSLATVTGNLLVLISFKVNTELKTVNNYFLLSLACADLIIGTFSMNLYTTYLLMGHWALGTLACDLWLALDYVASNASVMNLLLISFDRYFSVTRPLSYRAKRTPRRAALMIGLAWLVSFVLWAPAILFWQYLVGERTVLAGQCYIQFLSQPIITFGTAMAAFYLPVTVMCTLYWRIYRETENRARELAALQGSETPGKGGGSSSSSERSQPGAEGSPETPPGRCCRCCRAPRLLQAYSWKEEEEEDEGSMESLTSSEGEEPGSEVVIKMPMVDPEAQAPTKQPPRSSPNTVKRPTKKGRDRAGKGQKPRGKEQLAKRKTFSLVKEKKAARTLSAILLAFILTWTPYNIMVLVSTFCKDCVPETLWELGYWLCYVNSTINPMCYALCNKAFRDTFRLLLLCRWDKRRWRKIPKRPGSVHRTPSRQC

What was measured:
[1] = Nuclear factor erythroid 2-related factor 2/antioxidant responsive element (Nrf2/ARE) small molecule agonists: luciferase reporter gene qHTS assay in human keratinocytes (AID 1919969); conditions: KeratinoSens HaCaT ARE-luciferase, luminescence, 24 h; activity, positive = activation: at 92.4 µM (top of the series); note: potency is the fitted concentration of half-maximal effect; nearly all actives have a fitted effect of over 35% in size
[2] = p53 small molecule agonists, cell-based qHTS assay with rat liver microsomes: qHTS cell viability counter screen (AID 1963580); note: nearly all actives have a fitted effect of over 45% in size; note: potency is the fitted concentration of half-maximal effect
In short: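 Intracellular ATP, by CellTiter-Glo luminescence, defines viability. HCT-116 p53RE-bla cells, 4,000 per well, were compound-treated in the presence of rat liver microsomes and NADPH for 16 h at 37 C.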

[3] = p53 small molecule agonists, cell-based qHTS assay (AID 1963582; active = well fitted activation curve with a large enough effect in the signal ratio in the repeat runs, not every such curve was filed as active; inconclusive = weak or mixed curves; the % refers to the signal ratio; note: potency is the fitted concentration of half-maximal effect; for activation: % is set by controls: 0 for no effect and ±100 for the full control effect); conditions: HCT-116 p53RE-bla reporter, beta-lactamase FRET ratio, 16 h; activation: at 66 µM (top of the series) unless noted
In short: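 In this cell-based concentration-response screen, a p53 response element drives beta-lactamase; cells received DMSO-borne compounds after 5 h culture and were incubated a further 16 h before FRET substrate development.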

[4] = cAMP Responsive Elements (CRE) small molecule antagonists, cell-based qHTS assay (AID 1963591; active = well fitted inhibition curve with a large enough effect in the signal ratio in the repeat runs, not every such curve was filed as active; inconclusive = weak or mixed curves, or effect the other way; the % refers to the signal ratio; note: potency is the fitted concentration of half-maximal effect; for activity change, negative = inhibition: % is set by controls: 0 for no effect and ±100 for the full control effect); conditions: CRE-bla HEK293T, beta-lactamase FRET ratio; activity change, negative = inhibition: at 92.4 µM (top of the series) unless noted
In short: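 HEK293T cells carrying a CRE-driven beta-lactamase reporter receive compound and NKH477 (0.25 uM final) for 3 h. Fluorescence from LiveBLAzer B/G FRET substrate is read after 2 h at room temperature.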

[5] = molecular target: Beta-2 adrenergic receptor (Homo sapiens) (UniProt P07550); assay: Adrenergic beta2 receptor (ADRB2) small molecule agonists, cell-based qHTS assay (AID 1963593); conditions: CHO-ADRB2 cells, cAMP HTRF, 30 min; activation: at 92.4 µM (top of the series) unless noted; note: potency is the fitted concentration of half-maximal effect;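 for activation: CHO cells stably overexpressing human ADRB2; % is set by controls: 0 for no effect and ±100 for the full control effect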
In short: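 CHO cells stably over-expressing ADRB2 were plated overnight at 37C, then dosed with compounds plus a stimulation mix containing 100uM IBMX and 25uM Ro-20-1724 for 0.5hr at room temperature. cAMP was measured by HTRF competition, 1hr.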

[6] = molecular target: D(2) dopamine receptor (Homo sapiens) (UniProt P14416); assay: Dopamine D2 receptor (DRD2) small molecule antagonists, cell-based qHTS assay (AID 1963595; active = well fitted inhibition curve with a large enough effect in the signal ratio in the repeat runs, with a control signal flat; inconclusive = weak or mixed curves, or effect the other way; the % refers to the signal ratio; note: % is set by controls: 0 for no effect and ±100 for the full control effect); conditions: HEK293-DRD2 cAMP HTRF antagonist mode; activity change, negative = inhibition: at 92.4 µM (top of the series) unless noted
In short: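 HEK293 cells stably expressing DRD2, preincubated with 0.1 mM Ro20-1724 and compounds 10 min, were stimulated with 200 nM NKH477 plus 12 nM quinpirole for 30 min at room temperature; cAMP measured by HTRF (665/620 nm).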

[7] = p53 small molecule agonists, cell-based qHTS assay: qHTS cell viability counter screen (AID 1963581); note: % is set by controls: 0 for no effect and ±100 for the full control effect; nearly all actives have a fitted effect of over 45% in size
In short: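 Following 5 h attachment, HCT-116 p53RE-bla cells took up compound for 16 h at 37 C; the reporter was read with B/G FRET substrate (2 h RT), and viability then via CellTiter-Glo ATP luminescence.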

[8] = molecular target: 5-hydroxytryptamine receptor 2A (Homo sapiens) (UniProt P28223); assay: 5-hydroxytryptamine receptor 2A (HTR2A) small molecule antagonists, cell-based qHTS assay (AID 1963586); note: potency is the fitted concentration of half-maximal effect; nearly all actives have a fitted effect of over 45% in size
In short: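 Antagonist-mode intracellular calcium assay: DOI (4 nM) added after 5 min compound pre-incubation at room temperature to dye-loaded HTR2A-CHO cells. Fluorescence followed for 3 min, sampled every second.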

[9] = molecular target: Beta-2 adrenergic receptor (Homo sapiens) (UniProt P07550); assay: Adrenergic beta2 receptor (ADRB2) small molecule antagonists, cell-based qHTS assay (AID 1963592); conditions: CHO-ADRB2 cells, isoproterenol-stimulated cAMP HTRF ratio, 0.5 h; activity change, negative = inhibition: at 92.4 µM (top of the series) unless noted; note: nearly all actives have a fitted effect of over 50% in size; note: potency is the fitted concentration of half-maximal effect
In short: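 Cells (CHO, stable ADRB2 overexpression) incubated 18-20hr at 37C; compounds added from DMSO; agonist mix (1nM isoproterenol, 100uM IBMX, 25uM Ro-20-1724) added; 0.5hr RT; d2-cAMP and anti-cAMP-cryptate added; 1hr RT; 665/615 nm read.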

[10] = molecular target: Muscarinic acetylcholine receptor M1 (Homo sapiens) (UniProt P11229); assay: Cholinergic receptor muscarinic 1 (CHRM1) small molecule antagonists, cell-based qHTS assay (AID 1963588); note: potency is the fitted concentration of half-maximal effect; nearly all actives have a fitted effect of over 40% in size
In short: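 CHRM1-CHO calcium-flux assay, antagonist mode. Cells were seeded 18 h, dye-loaded 1 h at 37 C and given compound for 5 min at RT, then acetylcholine was added at 50nM. FDSS fluorescence was read 3 min; 15 concentrations, three runs.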

[11] = cAMP Responsive Elements (CRE) small molecule agonists, cell-based qHTS assay (AID 1963590); conditions: CRE-bla HEK293T, beta-lactamase FRET ratio, 3 h; activation: at 92.4 µM (top of the series) unless noted; note: potency is the fitted concentration of half-maximal effect
In short: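 A CRE-responsive beta-lactamase reporter in HEK 293T cells was used. Treatment ran 3 h at 37 C; detection used LiveBLAzer B/G FRET substrate for 2 h at room temperature.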

| Structure (SMILES) | Potency [1] | Potency [2] | Potency [3] | Potency [4] | Potency [5] | activity change, negative = inhibition [6] | Potency [7] | activation [3] | Potency [8] | activity change, negative = inhibition [4] | Potency [9] | activity change, negative = inhibition [9] | Potency [10] | Potency [11] |
| --- | --- | --- | --- | --- | --- | --- | --- | --- | --- | --- | --- | --- | --- | --- |
| CCN(CC)CCNc1ccc(CNC=O)c2sc3ccc(OC)cc3c(=O)c12 | active: 24.3 µM | inconclusive: 14.5 µM [cytotoxic, partial curve] | inconclusive: 5.76 µM [falling, full curve] | active: 21.7 µM | inactive | inconclusive: -18.7% | – | – | – | – | – | – | – | – |
| COc1ccc(-c2coc3cc(O)cc(O)c3c2=O)cc1 | inconclusive: 1.55 µM [activator, partial curve] | inconclusive: 51.8 µM [cytotoxic, single point] and inactive | – | inconclusive: 25.4 µM [activator, full curve] | inconclusive: 61.6 µM [inhibitor, partial curve] and inconclusive: 3.06 µM [inhibitor, partial curve, poor fit] | – | inactive | inconclusive: 10.3% | active: 33.4 µM | inconclusive: 8.81% | inconclusive: 69.1 µM [inhibitor, single point] | inconclusive: -33.7% | – | – |
| COc1cc(C(C)(C)C)c(O)c(C(C)(C)C)c1 | active: 48.6 µM | inconclusive: 51.3 µM [cytotoxic, single point] | – | inconclusive: 43.3 µM [partial curve] | inactive | – | inactive | – | – | – | – | – | inconclusive: 42.1 µM [inhibitor, partial curve, poor fit] | inconclusive: 61.1 µM [fluorescent, partial curve] |
